In US20220119518A1 (KUMHO HT, published 2022):
These are yes or no findings as the source states them, for the method shown. Some entries that bind do so weakly or less than the wild type.

By UniProt entry, the sequences of proteins in these tests, tags left out. Residues count along the entry.
UniProt P40199, residues 35-320: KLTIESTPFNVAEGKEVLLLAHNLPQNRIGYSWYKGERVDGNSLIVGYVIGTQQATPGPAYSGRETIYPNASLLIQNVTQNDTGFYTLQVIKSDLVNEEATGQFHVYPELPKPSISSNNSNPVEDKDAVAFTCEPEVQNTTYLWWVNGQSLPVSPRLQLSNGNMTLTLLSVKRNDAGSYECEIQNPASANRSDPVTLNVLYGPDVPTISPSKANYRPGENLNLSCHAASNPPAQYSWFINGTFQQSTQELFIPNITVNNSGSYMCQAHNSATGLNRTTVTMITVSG

Molecular target: Antigen CD66c (CEACAM6; Sino Biological, Inc.) (UniProt P40199)
Assay: ELISA, CEACAM6 coated 100 ng/well

Row | Binder | binding
1 | recombinant humanized anti-CD66c antibody Protein ID 3007 (Vk7 + VH6) (antibody, human IgG1, V domains shown, also called hu 3007; #43) VH: QVQLVQSGAEVKKPGASMKISCKASGYSFTDYTMNWVKQAPGQNLEWIGLINPFHGGTVSNQRFKVKATLTVDVSTNTAYMELSRLRSDDTAVYYCVRGDPVRHYYALAYWGQGTLVTVSS VL: DIQMTQSPSTLSASVGDRVTITCGASENVYGTLNWYQRKPGKAPKLLIYGATNLADGVPSRFSGSGSGTEYTLTISSLQPDDFATYYCQNVLSAPYTFGGGTKLEIK | binds
2 | recombinant humanized anti-CD66c antibody Protein ID 3019 (Vk7 + VH10) (antibody, human IgG1, V domains shown, also called hu 3019; #51) VH: QVQLVQSGAEVKKPGASVKVSCKASGYSFTDYTMNWVKQAPGQNLEWIGLINPFHGGTVSNQRFKVKATMTVDVSTNTAYMELSRLRSDDTAVYYCVRGDPVRHYYALAYWGQGTLVTVSS VL: DIQMTQSPSTLSASVGDRVTITCGASENVYGTLNWYQRKPGKAPKLLIYGATNLADGVPSRFSGSGSGTEYTLTISSLQPDDFATYYCQNVLSAPYTFGGGTKLEIK | binds

Results, then the binder that gave them:

Row | binding | Binder
3 | binds | recombinant humanized anti-CD66c antibody Protein ID 3058 (Vk8 + VH11) (antibody, human IgG1, V domains shown, also called hu 3058; #86) VH: QVQLVQSGAEVKKPGASVKISCKASGYSFTDYTMHWVKQAPGQNLEWIGLINPFGGSTSYAQKFKGRVTMTRDTSTNTAYMELSRLRSDDTAVYYCVRGDPVRHYYALAYWGQGTLVTVSS VL: DIQMTQSPSTLSASVGDRVTITCRASENVYGTLNWYQRKPGKAPKLLIYGATNLADGMPSRFSGSGSGTEYTLTISSLQPDDFATYYCQNVLSAPYTFGGGTKLEIK
4 | binds | recombinant humanized anti-CD66c antibody Protein ID 2938 (Vk5 + VH7) (antibody, human IgG1, V domains shown, also called hu 2938) VH: QVQLVQSGAEVKKPGASMKISCKASGYSFTDYTMNWVRQAPGQGLEWIGLINPFHGGTVSNQRFKVKATLTVDVSTNTAYMELSRLRSDDTAVYYCVRGDPVRHYYALAYWGQGTLVTVSS VL: DIQMTQSPSTLSASVGDRVTITCGASENVYGTLAWYQRKPGKAPKLLIYGATNLADGVPSRFSGSGSGREYTLTISSLQPDDFATYYCQNVLSAPYTFGGGTKLEIK
5 | binds | recombinant humanized anti-CD66c antibody Protein ID 3043 (Vk8 + VH6) (antibody, V domains shown, also called hu 3043; #71) VH: QVQLVQSGAEVKKPGASMKISCKASGYSFTDYTMNWVKQAPGQNLEWIGLINPFHGGTVSNQRFKVKATLTVDVSTNTAYMELSRLRSDDTAVYYCVRGDPVRHYYALAYWGQGTLVTVSS VL: DIQMTQSPSTLSASVGDRVTITCRASENVYGTLNWYQRKPGKAPKLLIYGATNLADGMPSRFSGSGSGTEYTLTISSLQPDDFATYYCQNVLSAPYTFGGGTKLEIK
